The values below are quoted from earlier work in patent US10259815B2, “Gabaergic ligands and their uses” (UWM Research Foundation, Inc., priority 2015, dated 2019).

Chains of the proteins cited; added tags and fusions are not shown. Residues count along the entry.
UniProt P18507, 40-475: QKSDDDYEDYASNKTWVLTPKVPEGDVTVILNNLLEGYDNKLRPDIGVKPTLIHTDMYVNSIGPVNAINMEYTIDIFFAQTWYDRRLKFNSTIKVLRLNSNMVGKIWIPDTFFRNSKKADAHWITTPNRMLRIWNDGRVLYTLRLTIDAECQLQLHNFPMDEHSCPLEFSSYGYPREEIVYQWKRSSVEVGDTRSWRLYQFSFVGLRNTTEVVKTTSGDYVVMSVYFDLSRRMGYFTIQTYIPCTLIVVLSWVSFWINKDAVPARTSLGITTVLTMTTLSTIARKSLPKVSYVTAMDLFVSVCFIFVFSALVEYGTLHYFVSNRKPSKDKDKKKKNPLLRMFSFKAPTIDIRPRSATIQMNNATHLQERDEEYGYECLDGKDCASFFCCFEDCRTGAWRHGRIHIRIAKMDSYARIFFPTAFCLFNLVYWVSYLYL
UniProt P31644, 32-462: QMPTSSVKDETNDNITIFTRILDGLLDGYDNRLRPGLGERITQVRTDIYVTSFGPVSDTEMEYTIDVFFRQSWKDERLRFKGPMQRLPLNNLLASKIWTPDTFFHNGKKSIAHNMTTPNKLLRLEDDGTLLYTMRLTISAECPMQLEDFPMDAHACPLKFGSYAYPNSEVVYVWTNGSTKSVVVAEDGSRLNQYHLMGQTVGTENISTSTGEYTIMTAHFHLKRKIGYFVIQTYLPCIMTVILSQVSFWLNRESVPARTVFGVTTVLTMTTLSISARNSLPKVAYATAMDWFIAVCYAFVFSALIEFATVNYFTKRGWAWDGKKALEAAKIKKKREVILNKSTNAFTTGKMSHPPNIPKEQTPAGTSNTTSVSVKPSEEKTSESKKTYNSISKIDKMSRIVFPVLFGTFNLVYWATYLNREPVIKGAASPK

The target in this data set is GABAA/α5 receptors (Homo sapiens, UniProt P18507+P31644). To be noted: read-out: Ki, GABAA/α5 receptors; as disclosed in Huang, et al., J. Med. Chem. 2000; cited from earlier work.

Bounds are passed on as bounds.

For `CN1C(=O)CN=C(c2ccccc2)c2cc(Cl)ccc21` [diazepam], the Ki was below 25 nM.
